Test results from PMC10950228.

By UniProt entry, the sequences of proteins in these tests, tags left out.
UniProt P51587: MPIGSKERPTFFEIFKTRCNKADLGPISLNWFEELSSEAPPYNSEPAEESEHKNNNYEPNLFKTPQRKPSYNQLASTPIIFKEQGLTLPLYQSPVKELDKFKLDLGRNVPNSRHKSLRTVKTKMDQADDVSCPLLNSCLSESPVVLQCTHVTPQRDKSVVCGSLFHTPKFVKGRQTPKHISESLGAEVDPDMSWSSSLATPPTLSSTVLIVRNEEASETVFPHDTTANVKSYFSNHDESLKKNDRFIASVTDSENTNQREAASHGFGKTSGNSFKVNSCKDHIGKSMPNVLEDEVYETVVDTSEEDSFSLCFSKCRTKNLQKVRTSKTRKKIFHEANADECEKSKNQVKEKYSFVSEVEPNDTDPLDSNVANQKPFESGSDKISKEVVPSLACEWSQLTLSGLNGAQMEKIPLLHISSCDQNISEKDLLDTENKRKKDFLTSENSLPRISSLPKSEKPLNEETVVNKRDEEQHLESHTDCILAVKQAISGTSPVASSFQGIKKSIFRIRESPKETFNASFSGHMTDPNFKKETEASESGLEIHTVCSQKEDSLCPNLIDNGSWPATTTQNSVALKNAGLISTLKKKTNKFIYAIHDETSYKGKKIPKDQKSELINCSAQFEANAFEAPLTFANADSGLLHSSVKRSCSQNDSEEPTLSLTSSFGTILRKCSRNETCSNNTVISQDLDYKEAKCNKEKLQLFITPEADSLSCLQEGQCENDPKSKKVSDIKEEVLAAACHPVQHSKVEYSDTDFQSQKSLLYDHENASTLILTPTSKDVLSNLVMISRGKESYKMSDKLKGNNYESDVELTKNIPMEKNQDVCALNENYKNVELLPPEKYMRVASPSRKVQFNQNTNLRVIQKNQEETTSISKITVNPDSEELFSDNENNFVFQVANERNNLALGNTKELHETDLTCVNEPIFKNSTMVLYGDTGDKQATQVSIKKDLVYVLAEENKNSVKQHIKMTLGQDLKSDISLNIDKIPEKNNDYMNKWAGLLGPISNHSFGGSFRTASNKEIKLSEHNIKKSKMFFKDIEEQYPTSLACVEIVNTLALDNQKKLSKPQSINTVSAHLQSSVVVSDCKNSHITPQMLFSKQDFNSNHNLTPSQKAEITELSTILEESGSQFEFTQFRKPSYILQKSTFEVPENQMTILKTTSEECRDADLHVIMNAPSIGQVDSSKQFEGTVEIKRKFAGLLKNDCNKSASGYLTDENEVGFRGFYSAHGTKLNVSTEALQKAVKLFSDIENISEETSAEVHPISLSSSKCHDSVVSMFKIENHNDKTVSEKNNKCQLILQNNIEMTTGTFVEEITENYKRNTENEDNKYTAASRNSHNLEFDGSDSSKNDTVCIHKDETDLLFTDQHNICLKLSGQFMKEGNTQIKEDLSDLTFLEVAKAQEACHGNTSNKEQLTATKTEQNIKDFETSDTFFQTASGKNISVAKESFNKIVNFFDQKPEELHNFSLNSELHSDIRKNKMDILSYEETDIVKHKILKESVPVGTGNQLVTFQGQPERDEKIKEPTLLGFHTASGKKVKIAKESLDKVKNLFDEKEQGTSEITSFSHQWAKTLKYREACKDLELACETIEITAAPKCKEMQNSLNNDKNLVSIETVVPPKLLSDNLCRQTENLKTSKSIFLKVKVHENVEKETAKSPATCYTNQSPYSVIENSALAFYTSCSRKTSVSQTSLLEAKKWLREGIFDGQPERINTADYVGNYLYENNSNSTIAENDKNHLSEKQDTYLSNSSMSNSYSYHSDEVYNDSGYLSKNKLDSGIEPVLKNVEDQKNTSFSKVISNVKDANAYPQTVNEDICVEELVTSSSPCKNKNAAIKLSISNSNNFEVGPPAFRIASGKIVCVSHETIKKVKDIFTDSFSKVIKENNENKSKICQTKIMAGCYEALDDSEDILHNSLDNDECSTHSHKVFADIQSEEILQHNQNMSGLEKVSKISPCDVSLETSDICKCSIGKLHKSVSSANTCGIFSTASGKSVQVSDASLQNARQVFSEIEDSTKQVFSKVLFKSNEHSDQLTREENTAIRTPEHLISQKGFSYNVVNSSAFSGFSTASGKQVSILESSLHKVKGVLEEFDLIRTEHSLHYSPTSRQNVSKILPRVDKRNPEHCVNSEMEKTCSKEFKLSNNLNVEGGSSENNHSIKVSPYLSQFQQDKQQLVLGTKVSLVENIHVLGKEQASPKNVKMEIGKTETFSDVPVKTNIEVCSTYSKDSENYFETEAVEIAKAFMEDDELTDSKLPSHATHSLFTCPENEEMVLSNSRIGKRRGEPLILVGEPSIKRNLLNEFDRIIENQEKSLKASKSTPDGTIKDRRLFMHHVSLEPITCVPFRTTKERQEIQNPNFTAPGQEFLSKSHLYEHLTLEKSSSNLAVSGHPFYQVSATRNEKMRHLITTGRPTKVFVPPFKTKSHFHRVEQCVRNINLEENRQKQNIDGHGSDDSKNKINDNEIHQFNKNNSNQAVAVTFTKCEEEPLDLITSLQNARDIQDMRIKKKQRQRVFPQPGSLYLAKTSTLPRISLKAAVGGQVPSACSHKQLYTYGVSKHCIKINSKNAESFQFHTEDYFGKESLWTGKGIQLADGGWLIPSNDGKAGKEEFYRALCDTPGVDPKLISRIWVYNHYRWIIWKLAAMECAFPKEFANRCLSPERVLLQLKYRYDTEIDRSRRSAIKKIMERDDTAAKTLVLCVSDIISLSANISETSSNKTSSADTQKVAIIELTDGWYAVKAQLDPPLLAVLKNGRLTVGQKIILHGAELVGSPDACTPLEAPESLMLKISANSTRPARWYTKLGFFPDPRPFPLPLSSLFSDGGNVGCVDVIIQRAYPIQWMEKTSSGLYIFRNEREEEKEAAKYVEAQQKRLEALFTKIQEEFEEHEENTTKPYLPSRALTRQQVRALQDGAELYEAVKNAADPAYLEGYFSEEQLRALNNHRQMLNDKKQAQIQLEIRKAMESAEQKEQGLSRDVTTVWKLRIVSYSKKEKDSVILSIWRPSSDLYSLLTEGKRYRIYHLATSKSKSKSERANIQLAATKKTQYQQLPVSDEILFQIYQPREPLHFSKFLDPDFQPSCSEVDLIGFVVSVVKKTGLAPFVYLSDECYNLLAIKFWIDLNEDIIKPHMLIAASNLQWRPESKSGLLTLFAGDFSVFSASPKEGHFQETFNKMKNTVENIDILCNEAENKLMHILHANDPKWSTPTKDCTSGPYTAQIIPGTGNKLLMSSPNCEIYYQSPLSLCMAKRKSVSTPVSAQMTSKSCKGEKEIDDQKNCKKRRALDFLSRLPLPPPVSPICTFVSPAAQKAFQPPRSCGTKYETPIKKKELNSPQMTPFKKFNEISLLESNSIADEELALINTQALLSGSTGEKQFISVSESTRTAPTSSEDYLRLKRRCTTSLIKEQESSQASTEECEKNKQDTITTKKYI
UniProt Q9BXW9: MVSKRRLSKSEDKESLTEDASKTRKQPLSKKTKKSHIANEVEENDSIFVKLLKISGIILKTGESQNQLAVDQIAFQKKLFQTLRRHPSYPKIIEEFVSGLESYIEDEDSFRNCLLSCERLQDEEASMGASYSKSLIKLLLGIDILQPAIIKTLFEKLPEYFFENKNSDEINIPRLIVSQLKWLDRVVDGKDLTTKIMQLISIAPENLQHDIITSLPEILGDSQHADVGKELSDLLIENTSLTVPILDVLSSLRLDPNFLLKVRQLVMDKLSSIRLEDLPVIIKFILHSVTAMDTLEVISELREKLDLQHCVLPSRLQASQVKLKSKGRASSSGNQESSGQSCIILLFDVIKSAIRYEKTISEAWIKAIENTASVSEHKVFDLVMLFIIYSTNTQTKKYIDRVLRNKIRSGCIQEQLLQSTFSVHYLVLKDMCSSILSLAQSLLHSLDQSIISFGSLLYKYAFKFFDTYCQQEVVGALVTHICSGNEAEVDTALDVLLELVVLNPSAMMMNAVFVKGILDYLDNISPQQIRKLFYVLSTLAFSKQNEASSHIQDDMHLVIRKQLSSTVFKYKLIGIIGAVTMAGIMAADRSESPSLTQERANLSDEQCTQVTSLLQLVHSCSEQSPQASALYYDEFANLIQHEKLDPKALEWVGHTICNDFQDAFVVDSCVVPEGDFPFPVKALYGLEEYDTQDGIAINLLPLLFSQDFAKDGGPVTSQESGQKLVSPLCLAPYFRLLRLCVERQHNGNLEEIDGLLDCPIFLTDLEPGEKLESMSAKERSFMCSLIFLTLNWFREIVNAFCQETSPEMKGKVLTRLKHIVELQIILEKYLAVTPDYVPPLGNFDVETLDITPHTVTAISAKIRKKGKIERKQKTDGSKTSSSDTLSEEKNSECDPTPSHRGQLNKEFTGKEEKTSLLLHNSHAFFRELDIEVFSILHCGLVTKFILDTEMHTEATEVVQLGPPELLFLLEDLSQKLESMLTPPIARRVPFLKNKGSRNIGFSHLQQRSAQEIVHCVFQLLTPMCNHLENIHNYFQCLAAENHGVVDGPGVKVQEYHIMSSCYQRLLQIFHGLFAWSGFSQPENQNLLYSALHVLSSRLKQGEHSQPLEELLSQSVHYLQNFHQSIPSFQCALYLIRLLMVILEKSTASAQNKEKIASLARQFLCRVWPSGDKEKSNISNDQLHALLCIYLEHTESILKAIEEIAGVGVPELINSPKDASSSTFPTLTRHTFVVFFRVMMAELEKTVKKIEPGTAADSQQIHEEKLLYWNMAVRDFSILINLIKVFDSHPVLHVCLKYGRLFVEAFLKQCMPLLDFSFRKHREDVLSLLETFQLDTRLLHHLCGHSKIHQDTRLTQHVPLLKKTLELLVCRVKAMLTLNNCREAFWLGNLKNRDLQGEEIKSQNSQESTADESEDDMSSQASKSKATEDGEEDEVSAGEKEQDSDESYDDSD
UniProt P54132: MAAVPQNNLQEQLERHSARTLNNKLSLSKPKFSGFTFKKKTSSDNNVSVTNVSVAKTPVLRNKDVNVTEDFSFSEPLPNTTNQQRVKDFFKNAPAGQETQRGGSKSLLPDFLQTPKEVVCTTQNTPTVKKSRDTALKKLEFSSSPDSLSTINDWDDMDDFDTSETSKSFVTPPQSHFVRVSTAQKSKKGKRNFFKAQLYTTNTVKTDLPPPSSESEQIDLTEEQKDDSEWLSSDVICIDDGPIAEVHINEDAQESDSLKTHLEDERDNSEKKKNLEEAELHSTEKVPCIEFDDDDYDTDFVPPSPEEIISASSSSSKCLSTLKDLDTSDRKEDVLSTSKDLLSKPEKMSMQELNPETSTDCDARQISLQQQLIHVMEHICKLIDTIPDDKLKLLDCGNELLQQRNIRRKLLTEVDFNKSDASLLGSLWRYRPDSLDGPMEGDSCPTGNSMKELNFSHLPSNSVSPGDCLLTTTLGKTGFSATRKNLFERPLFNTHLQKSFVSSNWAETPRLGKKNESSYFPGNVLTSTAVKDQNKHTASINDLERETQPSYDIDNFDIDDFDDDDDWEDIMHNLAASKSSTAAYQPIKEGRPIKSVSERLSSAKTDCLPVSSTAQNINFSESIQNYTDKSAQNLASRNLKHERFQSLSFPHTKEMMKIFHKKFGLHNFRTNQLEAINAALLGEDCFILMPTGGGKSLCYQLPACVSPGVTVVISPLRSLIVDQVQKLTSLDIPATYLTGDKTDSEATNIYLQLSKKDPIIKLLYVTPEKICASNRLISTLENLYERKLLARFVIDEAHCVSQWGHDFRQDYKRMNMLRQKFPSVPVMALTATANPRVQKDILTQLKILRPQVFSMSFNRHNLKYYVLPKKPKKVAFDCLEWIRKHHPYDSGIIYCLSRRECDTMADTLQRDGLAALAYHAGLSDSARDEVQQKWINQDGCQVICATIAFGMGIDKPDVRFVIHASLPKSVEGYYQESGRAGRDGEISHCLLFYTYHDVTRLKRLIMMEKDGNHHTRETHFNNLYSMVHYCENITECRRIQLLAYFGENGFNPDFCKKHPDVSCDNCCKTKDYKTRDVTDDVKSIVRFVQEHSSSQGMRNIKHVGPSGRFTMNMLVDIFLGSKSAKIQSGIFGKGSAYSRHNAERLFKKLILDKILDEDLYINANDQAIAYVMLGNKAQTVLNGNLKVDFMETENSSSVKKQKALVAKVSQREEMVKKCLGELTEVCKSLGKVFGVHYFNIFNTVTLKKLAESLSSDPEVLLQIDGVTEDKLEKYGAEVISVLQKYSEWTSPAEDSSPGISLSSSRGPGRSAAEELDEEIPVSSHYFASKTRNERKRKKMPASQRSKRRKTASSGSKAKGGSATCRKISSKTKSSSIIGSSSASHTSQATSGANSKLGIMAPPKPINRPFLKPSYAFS

Target: T1, SFB-RFWD3 C315A (human) (UniProt Q6PCD5)
T1 sequence: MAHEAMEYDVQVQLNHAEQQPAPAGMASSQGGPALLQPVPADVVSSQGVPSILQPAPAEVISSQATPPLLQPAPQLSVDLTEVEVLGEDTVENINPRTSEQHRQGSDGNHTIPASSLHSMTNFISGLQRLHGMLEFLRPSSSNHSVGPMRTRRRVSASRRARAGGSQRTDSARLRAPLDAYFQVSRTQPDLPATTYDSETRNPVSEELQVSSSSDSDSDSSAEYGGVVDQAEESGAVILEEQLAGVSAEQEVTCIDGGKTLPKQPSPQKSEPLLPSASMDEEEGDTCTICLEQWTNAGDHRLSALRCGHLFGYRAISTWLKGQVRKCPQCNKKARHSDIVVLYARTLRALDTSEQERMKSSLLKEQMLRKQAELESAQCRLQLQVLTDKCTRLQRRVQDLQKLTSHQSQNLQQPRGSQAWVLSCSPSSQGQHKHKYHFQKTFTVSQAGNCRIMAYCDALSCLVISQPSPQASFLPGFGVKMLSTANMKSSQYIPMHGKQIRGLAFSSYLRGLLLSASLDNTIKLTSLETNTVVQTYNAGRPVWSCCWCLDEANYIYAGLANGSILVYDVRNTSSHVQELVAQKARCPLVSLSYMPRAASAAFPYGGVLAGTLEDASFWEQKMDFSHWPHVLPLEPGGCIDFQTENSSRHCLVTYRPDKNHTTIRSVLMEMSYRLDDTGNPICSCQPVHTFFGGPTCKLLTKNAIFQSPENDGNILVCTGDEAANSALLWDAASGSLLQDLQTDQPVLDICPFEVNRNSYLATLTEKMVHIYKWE
Assay: affinity purification with mass spectrometry; duplicate large-scale streptavidin pulldowns of SFB-RFWD3 C315A (and C315A/I639K; SFB-GFP as negative control) from HU-treated HEK293T cells, in the presence of benzonase; MaxQuant and SAINT analysis

binding: binds
Molecule: BRCA2/FANCD1 (from UniProt P51587 1-3418)

binding: binds
Molecule: FANCD2 (from UniProt Q9BXW9 1-1451)

The next lines start with the molecule.

Molecule: BLM (from UniProt P54132 1-1417)
binding: binds

Molecule: FANCI (from UniProt Q9NVI1 1-1328)
binding: binds

B1: endogenous SMARCAL1 (protein, UniProt Q9NZC9 1-954)
chain: MSLPLTEEQRKKIEENRQKALARRAEKLLAEQHQRTSSGTSIAGNPFQAKQGPSQNFPRESCKPVSHGVIFKQQNLSSSSNADQRPHDSHSFQAKGIWKKPEEMPTACPGHSPRSQMALTGISPPLAQSPPEVPKQQLLSYELGQGHAQASPEIRFTPFANPTHKPLAKPKSSQETPAHSSGQPPRDAKLEAKTAKASPSGQNISYIHSSSESVTPRTEGRLQQKSGSSVQKGVNSQKGKCVRNGDRFQVLIGYNAELIAVFKTLPSKNYDPDTKTWNFSMNDYSALMKAAQSLPTVNLQPLEWAYGSSESPSTSSEGQAGLPSAPSLSFVKGRCMLISRAYFEADISYSQDLIALFKQMDSRRYDVKTRKWSFLLEEHSKLIAKVRCLPQVQLDPLPTTLTLAFASQLKKTSLSLTPDVPEADLSEVDPKLVSNLMPFQRAGVNFAIAKGGRLLLADDMGLGKTIQAICIAAFYRKEWPLLVVVPSSVRFTWEQAFLRWLPSLSPDCINVVVTGKDRLTAGLINIVSFDLLSKLEKQLKTPFKVVIIDESHFLKNSRTARCRAAMPVLKVAKRVILLSGTPAMSRPAELYTQIIAVKPTFFPQFHAFGLRYCDAKRMPWGWDYSGSSNLGELKLLLEEAVMLRRLKSDVLSQLPAKQRKIVVIAPGRINARTRAALDAAAKEMTTKDKTKQQQKDALILFFNRTAEAKIPSVIEYILDLLESGREKFLVFAHHKVVLDAITQELERKHVQHIRIDGSTSSAEREDLCQQFQLSERHAVAVLSITAANMGLTFSSADLVVFAELFWNPGVLIQAEDRVHRIGQTSSVGIHYLVAKGTADDYLWPLIQEKIKVLAEAGLSETNFSEMTESTDYLYKDPKQQKIYDLFQKSFEKEGSDMELLEAAESFDPGSASGTSGSSSQNMGDTLDESSLTASPQKKRRFEFFDNWDSFTSPL
binding: binds

No constants are given. Whether binding was seen depends on the method and setting. Binding seen in cells or lysates may run through a third protein. A yes stands for co-enrichment or nearness to the bait. Other partners may have been found. One block for each molecule: values may come before it.
